Our source for the binding values is patent US20240269278A1, “ANTI-CD47 ANTIBODY FOR COMBINED TREATMENT OF BLOOD TUMOR” (Nanjing Shunxin Pharmaceuticals Co., Ltd. of Chiatai …, priority 2021, published 2024).

No constants are given. Whether binding was seen depends on the method and setting. Some results given as binding are weak or reduced against the parent protein; the word gives no strength.

B1: hz14A9-2.3 (antibody, human IgG4 S228P, kappa, V domains shown)
VH: QVQLVQSGAEVKKPGASVKVSCKVSGFNIEDDYIEWVRQAPGQGLEWMGRIDPANDKTKYAQKFQGRVTMTGDTSTNTVYMELSSLRSEDTAVYYCARPGLRRYYSMDYWGQGTLVTVSS
VL: DIQMTQSPSSLSASVGDRVTITCKASENVVSYVSWYQQKPGKAPKLLIYGASNRYTGVPSRFIGSGSSTDFTLTISSLQPEDFATYYCGQSYSYPLTFGQGTKLEIKR
B2: hz14A9-2.4 (antibody, human IgG4 S228P, kappa, V domains shown)
VH: QVQLVQSGAEVKKPGASVKVSCKVSGFNIEDDYIEWVRQAPGQGLEWMGRIDPANDKTKYAQKFQGRVTMTGDTSTNTVYMELSSLRSEDTAVYYCTRPGLRRYYSMDYWGQGTLVTVSS
VL: DIQMTQSPSSLSASVGDRVTITCKASENVVSYVSWYQQKPGKAPKLLIYGASNRYTGVPSRFIGSGSSTDFTLTISSLQPEDFATYYCGQSYSYPLTFGQGTKLEIKR
B3: hz3F10-1.2 (antibody, human IgG4 S228P, kappa, V domains shown)
VH: QVQLVQSGAEVKKPGSSVKVSCKASGYTFSRYWIEWVRQAPGQGLEWMGEFIPGSDTTNYAQKFQGRVTITAEISTNTAYMELSSLRSEDTAVYYCARGGLRRMDYWGQGTLVTVSS
VL: DIQMTQSPSSLSASVGDRVTITCRASSSVSSTYLHWYQQKPGKAPKLLIYTTSTLASGVPSRFSGSGSGTDFTLTISSLQPEDFATYYCQQFSDSTWTFGQGTKLEIKR
B4: hz3F10-5.2 (antibody, human IgG4 S228P, kappa, V domains shown)
VH: QVQLVQSGAEVKKPGSSVKVSCKASGYTFSRYWIEWVRQAPGQGLEWMGEFIPGSDTTNYAQKFQGRVTITAEISTNTAYMELSSLRSEDTAVYYCARGGLRRMDYWGQGTLVTVSS
VL: DIQMTQSPSSLSASVGDRVTITCRASSSVSSTYLHWYQQKPGKAPKLWIYTTSTLASGVPSRFSGSGSGTSYTLTISSLQPEDFATYYCQQFSDSTWTFGQGTKLEIKR
B5: hz3F10-6.2 (antibody, human IgG4 S228P, kappa, V domains shown)
VH: QVQLVQSGAEVKKPGSSVKVSCKASGYTFSRYWIEWVRQAPGQGLEWMGEFIPGSDTTNYAQKFQGRVTITAEISTNTAYMELSSLRSEDTAVYYCARGGLRRMDYWGQGTLVTVSS
VL: DIQMTQSPSSLSASVGDRVTITCRASSSVSSTYLHWYQQKPGKAPKLWIYTTSTLASGVPSRFSGSGSGTSYTLTISSLQPEDFATYYCQQFSESTWTFGQGTKLEIKR
B6: hz3F10-2.2 (antibody, human IgG4 S228P, kappa, V domains shown)
VH: QVQLVQSGAEVKKPGSSVKVSCKASGYTFSRYWIEWVRQAPGQGLEWMGEFIPGSDTTNYAQKFQGRVTITAEISTNTAYMELSSLRSEDTAVYYCARGGLRRMDYWGQGTLVTVSS
VL: DIQMTQSPSSLSASVGDRVTITCRASSSVSSTYLHWYQQKPGKAPKLLIYTTSTLASGVPSRFSGSGSGTDFTLTISSLQPEDFATYYCQQFSESTWTFGQGTKLEIKR
B7: hz3F10-4.2 (antibody, human IgG4 S228P, kappa, V domains shown)
VH: QVQLVQSGAEVKKPGSSVKVSCKASGYTFSRYWIEWVRQAPGQGLEWMGEFIPGSDTTNYAQKFQGRVTITAEISTNTAYMELSSLRSEDTAVYYCARGGLRRMDYWGQGTLVTVSS
VL: DIQMTQSPSSLSASVGDRVTITCRASSSVSSTYLHWYQQKPGKAPKLLIYTTSTLASGVPSRFSGSGSGTSYTLTISSLQPEDFATYYCQQFSESTWTFGQGTKLEIKR
B8: Xi2H8 (antibody, human IgG4 S228P, kappa, V domains shown)
VH: QVQLKESGPGLVAPSQSLSITCTVSGFSLTNYGVHWVRQPPGKGLEWLGIIWAGGSTNYNSALMSRLSISKDNSKSQVFLKMNSLQTDDTAMYYCARDDYASMDYWGQGTSVTVSS
VL: DAFMTQTPLSLPVSLGDQASISCRSSQSLVHSNGNTYLHWYLQKPGQSPKLLIYKVSNRFSGVPDRFSGSGSGTDFTLKISRVEAEDLGVYFCSQSTHVPYTLGGGTKLEIKR
B9: Xi16E5 (antibody, human IgG4 S228P, kappa, V domains shown)
VH: EVQLQQSGPELKKPGETVKISCKASGYTFTNYGMNWVKQVPGKGLKWMGWINTNTGEPTYAEEFKGRFAFSLETSARTAFLQINNLKNEDTATYFCTRFSHLRGPMDYWGQGASVTVSS
VL: DAVMTQTPLSLPVSLGDQASISCRSSQSLVHSNGYTYLHWYLQKPGQSPKLLIYKVSNRFSGVPDRFSGSGSGTDFTLKISRLEAEDLGVYFCSQSTHVPPTFGGGTKLEIKR
B10: Xi3F10 (antibody, human IgG4 S228P, kappa, V domains shown)
VH: EVQLQQSVAELMKPGASVKIYCKATGYTFSRYWIEWVKQRPGHGLEWIGEFIPGSDTTNFNEKFKGKATFTAEISSNTAYMQLSSLTSEDSAVYFCARGGLRRMDYWGQGTSVTVSS
VL: DIVMTQTPAIMSASPGEKVTMTCRASSSVSSTYLHWYQQKSGASPKLWIYTTSTLASGVPARFSGSGSGTSYSLTISSVEAEDAATYYCQQFSDSTWTFGGGTKLEIKR
B11: Xi14A9 (antibody, human IgG4 S228P, kappa, V domains shown)
VH: EVQLQQSGAEVARPGASVKLSCTVSGFNIEDDYIEWVKQRPEQGLEWIGRIDPANDKTKYAPKFQDKATITGDTSSNTAYLQLSSLTSEDTAVYYCTRPGLRRYYSMDYWGQGTSVTVSS
VL: NIVLTQSPKSMSMSVGERVTLSCKASENVVSYVSWYQQKPEQSPKLLIYGASNRYTGVPDRFIGSGSSTDFTLIISSFQPEDLADYHCGQSYSYPLTFGAGTKLELKR

The target in the test is cynomolgus/rhesus macaque CD47 protein, His Tag (ACRObiosystems, Cat. No. CD7-C52H1) (cynomolgus monkey). The experiment in a line: Biacore SPR. On the technique in general: Surface plasmon resonance follows binding to a sensor surface in real time, without labels.
Turning to B1, the binding result is reported as “binds”.
Then B2, with “binds”; and B3, with “binds”.
In the case of B4 it was “binds”.
For the molecule B5, the binding entry is recorded as “binds”.
With B6, the binding result is “binds”.
In the case of B7 it was “binds”; in that of B8, “binds”.
Then B9, with “binds”.
Then B10, with “binds”.
As to B11, the binding entry was “binds”.
